From the supplement of paper PMC10849652
The other results are listed elsewhere or left out.

Protein sequences, listed by entry. Tags and fused reporters are not part of them. Lines headed by an entry give the natural chain unless they say otherwise; changes in a name come on top.
UniProt Q9BZM5, whole entry, looked up: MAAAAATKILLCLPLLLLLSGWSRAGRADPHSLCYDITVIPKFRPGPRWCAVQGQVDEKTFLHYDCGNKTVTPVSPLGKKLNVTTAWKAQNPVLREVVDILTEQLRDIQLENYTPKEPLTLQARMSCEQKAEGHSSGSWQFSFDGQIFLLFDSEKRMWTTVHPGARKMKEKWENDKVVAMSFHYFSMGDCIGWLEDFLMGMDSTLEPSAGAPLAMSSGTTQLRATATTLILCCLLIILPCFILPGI
UniProt P09327: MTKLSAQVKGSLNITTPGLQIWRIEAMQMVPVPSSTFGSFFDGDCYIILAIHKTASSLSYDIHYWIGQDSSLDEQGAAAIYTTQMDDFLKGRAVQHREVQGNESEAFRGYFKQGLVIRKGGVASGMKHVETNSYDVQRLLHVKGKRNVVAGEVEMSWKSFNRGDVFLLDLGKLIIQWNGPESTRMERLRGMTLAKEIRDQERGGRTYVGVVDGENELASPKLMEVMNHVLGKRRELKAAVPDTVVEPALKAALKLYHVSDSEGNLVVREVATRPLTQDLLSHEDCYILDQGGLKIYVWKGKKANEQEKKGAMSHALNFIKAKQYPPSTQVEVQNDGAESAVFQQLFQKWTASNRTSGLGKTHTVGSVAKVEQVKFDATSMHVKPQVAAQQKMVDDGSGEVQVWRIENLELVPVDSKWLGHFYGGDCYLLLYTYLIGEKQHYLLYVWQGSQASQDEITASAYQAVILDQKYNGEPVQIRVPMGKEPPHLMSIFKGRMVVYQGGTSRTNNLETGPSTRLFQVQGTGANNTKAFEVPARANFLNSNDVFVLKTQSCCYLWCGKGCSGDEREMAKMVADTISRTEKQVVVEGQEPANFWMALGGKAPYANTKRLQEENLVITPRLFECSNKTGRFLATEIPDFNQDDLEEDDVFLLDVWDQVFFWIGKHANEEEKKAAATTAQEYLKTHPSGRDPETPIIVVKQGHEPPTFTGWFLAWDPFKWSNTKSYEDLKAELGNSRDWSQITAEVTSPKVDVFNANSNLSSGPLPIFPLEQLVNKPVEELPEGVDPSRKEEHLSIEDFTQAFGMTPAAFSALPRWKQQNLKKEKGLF
UniProt P40337, whole entry, looked up: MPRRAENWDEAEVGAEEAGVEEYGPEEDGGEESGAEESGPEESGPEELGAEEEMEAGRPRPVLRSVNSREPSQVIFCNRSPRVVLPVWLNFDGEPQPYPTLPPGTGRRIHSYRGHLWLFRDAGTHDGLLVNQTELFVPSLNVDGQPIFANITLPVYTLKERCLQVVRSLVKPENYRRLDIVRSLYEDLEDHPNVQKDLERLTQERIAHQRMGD
UniProt O75317, whole entry, looked up: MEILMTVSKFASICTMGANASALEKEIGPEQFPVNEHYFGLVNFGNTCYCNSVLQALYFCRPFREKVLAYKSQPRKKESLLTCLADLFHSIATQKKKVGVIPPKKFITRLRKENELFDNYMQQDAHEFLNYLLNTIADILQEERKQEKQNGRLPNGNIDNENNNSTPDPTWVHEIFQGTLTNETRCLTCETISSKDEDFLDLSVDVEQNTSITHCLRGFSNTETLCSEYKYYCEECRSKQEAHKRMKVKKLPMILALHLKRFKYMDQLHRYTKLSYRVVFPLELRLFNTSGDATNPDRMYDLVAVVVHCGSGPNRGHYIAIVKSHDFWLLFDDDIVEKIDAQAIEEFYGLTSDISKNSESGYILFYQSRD
UniProt Q9UDW1: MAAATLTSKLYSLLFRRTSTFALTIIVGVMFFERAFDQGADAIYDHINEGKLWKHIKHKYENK
UniProt P51784: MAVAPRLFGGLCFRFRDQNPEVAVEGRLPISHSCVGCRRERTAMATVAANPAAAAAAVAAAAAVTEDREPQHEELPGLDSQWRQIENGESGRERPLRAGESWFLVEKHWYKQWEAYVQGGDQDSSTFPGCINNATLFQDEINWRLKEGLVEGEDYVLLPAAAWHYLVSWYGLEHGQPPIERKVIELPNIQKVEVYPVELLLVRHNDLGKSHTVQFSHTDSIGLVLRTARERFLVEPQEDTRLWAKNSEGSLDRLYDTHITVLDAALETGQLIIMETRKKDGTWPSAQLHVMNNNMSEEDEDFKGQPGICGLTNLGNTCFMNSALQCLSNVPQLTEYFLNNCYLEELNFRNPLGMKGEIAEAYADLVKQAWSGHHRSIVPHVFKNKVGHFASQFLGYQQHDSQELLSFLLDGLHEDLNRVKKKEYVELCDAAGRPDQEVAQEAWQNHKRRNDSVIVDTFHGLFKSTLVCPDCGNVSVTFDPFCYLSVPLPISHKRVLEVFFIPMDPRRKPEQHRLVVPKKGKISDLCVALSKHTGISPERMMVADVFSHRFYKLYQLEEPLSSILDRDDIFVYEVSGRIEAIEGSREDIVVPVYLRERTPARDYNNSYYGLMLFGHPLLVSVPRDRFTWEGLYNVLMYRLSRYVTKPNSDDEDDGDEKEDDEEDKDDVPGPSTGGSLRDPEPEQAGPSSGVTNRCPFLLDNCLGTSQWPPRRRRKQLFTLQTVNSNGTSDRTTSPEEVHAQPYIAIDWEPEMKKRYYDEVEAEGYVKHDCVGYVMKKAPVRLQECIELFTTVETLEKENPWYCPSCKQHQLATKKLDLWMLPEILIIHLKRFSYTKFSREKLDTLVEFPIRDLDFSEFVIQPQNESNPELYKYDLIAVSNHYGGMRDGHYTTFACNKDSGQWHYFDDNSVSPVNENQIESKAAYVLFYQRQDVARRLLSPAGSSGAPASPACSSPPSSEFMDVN
UniProt O60287: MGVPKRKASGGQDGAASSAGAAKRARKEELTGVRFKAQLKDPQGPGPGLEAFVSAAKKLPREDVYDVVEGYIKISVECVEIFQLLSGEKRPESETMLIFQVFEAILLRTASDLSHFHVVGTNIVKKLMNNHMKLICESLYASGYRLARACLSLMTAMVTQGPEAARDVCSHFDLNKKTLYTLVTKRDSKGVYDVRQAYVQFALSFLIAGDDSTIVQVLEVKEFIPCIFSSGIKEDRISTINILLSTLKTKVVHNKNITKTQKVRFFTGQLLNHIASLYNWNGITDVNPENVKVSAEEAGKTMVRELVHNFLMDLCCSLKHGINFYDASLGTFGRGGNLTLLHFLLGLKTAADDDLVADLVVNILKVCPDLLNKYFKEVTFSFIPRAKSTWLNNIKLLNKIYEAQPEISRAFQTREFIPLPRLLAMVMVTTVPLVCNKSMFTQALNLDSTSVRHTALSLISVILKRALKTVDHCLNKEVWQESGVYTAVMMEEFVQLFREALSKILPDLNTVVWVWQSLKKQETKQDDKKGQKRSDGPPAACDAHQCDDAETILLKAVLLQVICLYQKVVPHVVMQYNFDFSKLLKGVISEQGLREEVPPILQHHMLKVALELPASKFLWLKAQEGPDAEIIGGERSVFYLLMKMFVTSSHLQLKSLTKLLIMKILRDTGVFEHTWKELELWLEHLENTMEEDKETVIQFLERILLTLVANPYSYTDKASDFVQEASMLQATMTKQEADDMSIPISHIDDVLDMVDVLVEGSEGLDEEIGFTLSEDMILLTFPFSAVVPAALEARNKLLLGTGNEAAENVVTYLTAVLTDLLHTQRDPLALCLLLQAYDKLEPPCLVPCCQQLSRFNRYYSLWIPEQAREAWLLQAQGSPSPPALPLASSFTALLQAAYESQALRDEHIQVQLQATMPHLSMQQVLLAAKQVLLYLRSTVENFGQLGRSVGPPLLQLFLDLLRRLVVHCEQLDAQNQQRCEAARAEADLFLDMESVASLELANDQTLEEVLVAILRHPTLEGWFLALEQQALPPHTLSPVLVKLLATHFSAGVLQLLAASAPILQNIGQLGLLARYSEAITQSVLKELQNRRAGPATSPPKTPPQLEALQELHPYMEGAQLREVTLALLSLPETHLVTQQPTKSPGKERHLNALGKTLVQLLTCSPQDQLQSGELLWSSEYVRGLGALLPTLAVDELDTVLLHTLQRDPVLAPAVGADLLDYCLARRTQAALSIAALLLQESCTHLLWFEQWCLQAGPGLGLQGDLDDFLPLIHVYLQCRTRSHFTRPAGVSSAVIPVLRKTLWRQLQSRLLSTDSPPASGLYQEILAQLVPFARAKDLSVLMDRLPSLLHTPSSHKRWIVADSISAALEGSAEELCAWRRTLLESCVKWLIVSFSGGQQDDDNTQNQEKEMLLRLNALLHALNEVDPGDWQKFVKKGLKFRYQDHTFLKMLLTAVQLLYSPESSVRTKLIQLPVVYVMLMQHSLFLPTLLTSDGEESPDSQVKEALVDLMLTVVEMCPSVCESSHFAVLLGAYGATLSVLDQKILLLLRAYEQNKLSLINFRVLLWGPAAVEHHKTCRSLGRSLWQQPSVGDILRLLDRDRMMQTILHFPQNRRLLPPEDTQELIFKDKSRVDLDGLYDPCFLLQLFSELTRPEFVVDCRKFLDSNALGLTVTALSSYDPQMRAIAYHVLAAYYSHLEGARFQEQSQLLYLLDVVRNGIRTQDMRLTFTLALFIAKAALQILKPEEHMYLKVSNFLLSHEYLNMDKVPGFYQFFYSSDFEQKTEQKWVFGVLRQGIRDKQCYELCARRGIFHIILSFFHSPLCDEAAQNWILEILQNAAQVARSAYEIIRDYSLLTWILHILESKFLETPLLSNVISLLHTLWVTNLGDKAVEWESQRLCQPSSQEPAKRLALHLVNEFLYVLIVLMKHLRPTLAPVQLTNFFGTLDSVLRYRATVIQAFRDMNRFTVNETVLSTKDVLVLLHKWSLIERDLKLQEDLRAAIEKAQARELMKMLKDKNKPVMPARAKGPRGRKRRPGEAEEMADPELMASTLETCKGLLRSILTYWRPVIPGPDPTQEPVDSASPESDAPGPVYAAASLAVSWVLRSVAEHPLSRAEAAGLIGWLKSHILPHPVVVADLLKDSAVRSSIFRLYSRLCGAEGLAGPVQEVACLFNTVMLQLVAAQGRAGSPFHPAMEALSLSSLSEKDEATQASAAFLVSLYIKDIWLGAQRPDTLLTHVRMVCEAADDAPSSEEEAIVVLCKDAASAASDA
UniProt P62068, whole entry, looked up: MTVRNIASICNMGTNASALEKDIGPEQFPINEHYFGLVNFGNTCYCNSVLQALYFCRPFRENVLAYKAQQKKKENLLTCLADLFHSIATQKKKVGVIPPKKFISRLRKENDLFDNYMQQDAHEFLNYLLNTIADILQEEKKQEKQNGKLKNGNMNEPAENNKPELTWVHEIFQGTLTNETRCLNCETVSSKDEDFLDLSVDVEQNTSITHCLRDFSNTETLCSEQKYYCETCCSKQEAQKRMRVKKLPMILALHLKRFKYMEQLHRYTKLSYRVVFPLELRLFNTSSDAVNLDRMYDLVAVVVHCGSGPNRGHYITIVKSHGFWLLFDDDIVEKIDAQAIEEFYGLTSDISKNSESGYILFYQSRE
UniProt Q9NVE5: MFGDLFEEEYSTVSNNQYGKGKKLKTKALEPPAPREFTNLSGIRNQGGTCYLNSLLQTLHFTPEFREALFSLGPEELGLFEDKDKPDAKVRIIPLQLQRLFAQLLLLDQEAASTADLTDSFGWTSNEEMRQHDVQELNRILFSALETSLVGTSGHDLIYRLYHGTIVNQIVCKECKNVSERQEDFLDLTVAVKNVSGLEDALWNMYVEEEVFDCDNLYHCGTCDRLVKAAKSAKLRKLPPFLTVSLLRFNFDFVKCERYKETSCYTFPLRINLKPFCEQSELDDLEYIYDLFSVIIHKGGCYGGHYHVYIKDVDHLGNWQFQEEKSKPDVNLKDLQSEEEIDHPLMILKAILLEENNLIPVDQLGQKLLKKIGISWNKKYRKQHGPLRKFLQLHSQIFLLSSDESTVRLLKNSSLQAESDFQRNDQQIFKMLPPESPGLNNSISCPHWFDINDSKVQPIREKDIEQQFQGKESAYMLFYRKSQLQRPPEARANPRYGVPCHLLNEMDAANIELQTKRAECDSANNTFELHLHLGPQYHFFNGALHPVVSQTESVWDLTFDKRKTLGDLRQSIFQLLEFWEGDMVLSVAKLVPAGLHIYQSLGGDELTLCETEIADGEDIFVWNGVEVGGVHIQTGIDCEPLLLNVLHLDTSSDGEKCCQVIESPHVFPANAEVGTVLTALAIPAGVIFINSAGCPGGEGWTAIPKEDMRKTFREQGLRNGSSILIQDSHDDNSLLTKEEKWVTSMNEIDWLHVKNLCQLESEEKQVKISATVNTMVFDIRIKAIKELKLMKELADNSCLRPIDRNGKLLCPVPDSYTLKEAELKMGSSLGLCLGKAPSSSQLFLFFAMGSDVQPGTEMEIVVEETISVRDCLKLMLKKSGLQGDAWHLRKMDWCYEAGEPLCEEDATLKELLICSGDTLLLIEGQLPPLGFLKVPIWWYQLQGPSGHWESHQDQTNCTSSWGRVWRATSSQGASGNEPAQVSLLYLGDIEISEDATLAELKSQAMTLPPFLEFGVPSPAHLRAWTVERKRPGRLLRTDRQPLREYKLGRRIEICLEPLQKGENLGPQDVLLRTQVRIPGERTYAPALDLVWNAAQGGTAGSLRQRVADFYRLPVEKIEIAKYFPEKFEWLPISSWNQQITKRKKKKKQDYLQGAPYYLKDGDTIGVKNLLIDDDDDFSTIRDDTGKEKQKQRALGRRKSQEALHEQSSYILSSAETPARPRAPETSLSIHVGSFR

Key:
Test in all cases: log2 fold change, soluble protein after heating vs DMSO (PISA); higher = thermal stabilisation; K562 lysate, 10 uM; active = over 0.2 and 3.5 SD of the protein, either way, in both replicates (recomputed)
erlotinib = compound: C#Cc1cccc(Nc2ncnc3cc(OCCOC)c(OCCOC)cc23)c1 [erlotinib]
Procedure, shortened: (§1)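 Thermal stability, expressed as log-two fold change relative to solvent controls, is given from duplicates. Crude K562 extract in PBS pH 7.4 with 1 mM MgCl2, at 1 mg/mL protein, was treated with 10 μM compound for 30 min and heated in aliquots for 3 min across 48°C-58°C. After pooling, adjustment to 0.5% NP-40 at 4°C and centrifugation at 21,000xg for 90 min, supernatant protein was measured by TMTpro 16plex LC-MS/MS with channel sums equalised.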

[1] = compound: C/C(=N\NC(=O)C1=CC(=CC=C1)S(=O)(=O)N2CCOCC2)/C3=C(C=CC(=C3)Cl)O
Procedure, shortened: as §1

[2] = compound: C1=CC(=CC=C1C2=NC3=C(N2)C=C(C=C3)C(=O)N)OC4=CC=C(C=C4)Cl
Procedure, shortened: as §1

[3] = compound: C1=CC2=C(C=CC(=C2)/C=C\3/C(=O)NC(=NCC4=CC=CS4)S3)N=C1
Procedure, shortened: as §1

[4] = compound: C1=CC2=NC=CN=C2C=C1/C=C/3\C(=O)NC(=O)S3
Procedure, shortened: as §1

[5] = compound: C1=CC=C(C=C1)C2=NC(=C(N2)C3=CC=NC=C3)C4=CC(=C(C=C4)Cl)O
Procedure, shortened: as §1

[6] = compound: C1=CC=C2C(=C1)C3=NNC4=CC=CC(=C43)C2=O
Procedure, shortened: as §1

[7] = compound: C1CCN(C1)C(=O)NC2=CC=CC(=C2)NC3=NC=C(C(=N3)NCCC4=CN=CN4)Br
Procedure, shortened: as §1

[8] = compound: C1CN(CCC1(CC2=CC=C(C=C2)Cl)N)C3=NC=NC4=C3C=CN4
Procedure, shortened: as §1

IRAK-1-4 Inhibitor I = compound: C1COCCN1CCN2C3=CC=CC=C3N=C2NC(=O)C4=CC(=CC=C4)[N+](=O)[O-] [IRAK-1-4 Inhibitor I]
Procedure, shortened: as §1

ibrutinib = compound: C=CC(=O)N1CCC[C@@H](n2nc(-c3ccc(Oc4ccccc4)cc3)c3c(N)ncnc32)C1 [ibrutinib]
Procedure, shortened: as §1

[9] = compound: CC(=O)c1cnc2ccc(-c3cc(Cl)c(O)c(Cl)c3)nc2c1N[C@H]1CC[C@H](CN(C)C)CC1
Procedure, shortened: as §1

ralimetinib = compound: CC(C)(C)Cn1c(N)nc2ccc(-c3[nH]c(C(C)(C)C)nc3-c3ccc(F)cc3)nc21 [ralimetinib]
Procedure, shortened: as §1

[10] = compound: CC(C)(O)CC(=O)NCCn1ccc2ncnc(Nc3ccc(Oc4cccc(C(F)(F)F)c4)c(Cl)c3)c21
Procedure, shortened: as §1

[11] = compound: CC(C)C1=C2N=C(C=C(N2N=C1)NCC3=CC=CC=C3)NCCCCCCN
Procedure, shortened: as §1

[12] = compound: CC1=C(C2=C(C=C1)C(=O)C3=CC=CC=C3N2CCCN)C
Procedure, shortened: as §1

[13] = compound: CC1=C(C=C(C=C1)NC(=O)C2=CC(=CC=C2)C(C)(C)C#N)NC3=CC4=C(C=C3)N=CN(C4=O)C
Procedure, shortened: as §1

[14] = compound: CC1=C(C=C(C=C1)NC(=O)C2=CC(=CC=C2)N(C)C)NC(=O)C3=CC=C(C=C3)O
Procedure, shortened: as §1

[15] = compound: CC1=CC=C(C=C1)SC2=C3C=C(SC3=CN=C2)C(=O)N
Procedure, shortened: as §1

[16] = compound: CC1=C(C(CC(=O)N1)C2=CC=C(C=C2)C(F)(F)F)C(=O)NC3=C(C=C4C(=C3)C=NN4)F
Procedure, shortened: as §1

Measured: log2 fold change

ULBP2 (UniProt Q9BZM5)
inactive: erlotinib 0.017 | [1] 0.061 | [2] -0.125 | [3] 0.014 | [4] 0.001 | [5] 0.018 | [6] 0.018 | [7] -0.004 | [8] -0.048 | IRAK-1-4 Inhibitor I 0.025 | ibrutinib -0.011 | [9] 0 | ralimetinib -0.017 | [10] -0.034 | [11] -0.048 | [12] 0.2 | [13] 0.04 | [14] 0.06 | [15] -0.049

VIL1 (UniProt P09327)
inactive: erlotinib -0.048 | [1] -0.017 | [2] -0.042 | [3] 0.013 | [4] 0.124 | [5] -0.026 | [6] -0.04 | [7] -0.222 | [8] 0.003 | IRAK-1-4 Inhibitor I 0.04 | ibrutinib -0.142 | [9] -0.052 | ralimetinib 0.13 | [10] 0.017 | [11] 0.002 | [12] -0.021 | [13] 0.002 | [14] -0.162 | [15] 0.035

VHL (UniProt P40337)
inactive: erlotinib 0.088 | [1] 0.034 | [2] -0.016 | [3] 0.059 | [4] 0.032 | [5] -0.09 | [6] -0.003 | [7] -0.007 | [8] -0.107 | IRAK-1-4 Inhibitor I 0.02 | ibrutinib 0.033 | ralimetinib 0.09 | [10] -0.027 | [11] 0.06 | [16] -0.045 | [12] -0.109 | [13] -0.013 | [14] 0.024

USP12 (UniProt O75317)
inactive: erlotinib -0.064 | [1] 0.137 | [2] 0.107 | [3] -0.019 | [5] 0.027 | [6] -0.053 | [7] 0.073 | [8] 0.027 | IRAK-1-4 Inhibitor I -0.162 | [9] 0.047 | ralimetinib -0.101 | [10] -0.39 | [11] -0.122 | [16] 0.028 | [13] 0.15 | [14] 0.233 | [15] -0.134

UQCR10 (UniProt Q9UDW1)
inactive: erlotinib -0.022 | [1] -0.02 | [2] -0.05 | [3] 0.03 | [5] -0.013 | [6] -0.026 | [7] 0.014 | [8] 0.026 | IRAK-1-4 Inhibitor I -0.033 | [9] 0.014 | ralimetinib -0.01 | [10] 0.034 | [11] 0.037 | [16] -0.017 | [12] -0.029 | [13] 0.074 | [14] -0.008 | [15] 0.046

USP11 (UniProt P51784)
inactive: erlotinib 0.014 | [1] -0.032 | [2] -0.012 | [3] -0.004 | [4] 0.027 | [5] 0.019 | [6] -0.032 | [7] 0.005 | [8] 0.039 | IRAK-1-4 Inhibitor I 0.027 | ibrutinib -0.042 | [9] 0.004 | ralimetinib -0.018 | [10] 0.004 | [11] 0.042 | [16] 0.033 | [12] -0.042 | [13] -0.005 | [14] 0.045 | [15] 0.026

URB1 (UniProt O60287)
inactive: erlotinib -0.023 | [1] 0.143 | [2] -0.02 | [3] 0.018 | [5] 0.042 | [6] 0.025 | [7] -0.021 | [8] -0.06 | IRAK-1-4 Inhibitor I -0.043 | [9] -0.214 | ralimetinib -0.013 | [10] -0.019 | [11] -0.059 | [16] -0.043 | [12] -0.071 | [13] 0.007 | [14] 0.002 | [15] 0.293

UXS1 isoform 2 (UniProt Q8NBZ7)
inactive: erlotinib 0.045 | [1] 0.099 | [2] -0.034 | [3] -0.019 | [4] 0.107 | [5] 0.04 | [6] -0.047 | [7] -0.025 | [8] -0.08 | IRAK-1-4 Inhibitor I 0.046 | ibrutinib 0.007 | [9] 0.096 | ralimetinib -0.039 | [10] -0.046 | [11] 0 | [12] 0.112 | [13] -0.027 | [14] -0.019 | [15] 0.03

UPF3A (UniProt Q9H1J1)
inactive: erlotinib 0.054 | [2] -0.08 | [4] 0.072 | [5] -0.062 | [7] -0.047 | [8] 0.044 | IRAK-1-4 Inhibitor I -0.09 | ibrutinib 0.006 | [9] 0.024 | ralimetinib 0.115 | [10] 0.005 | [11] -0.114 | [13] 0.014 | [14] -0.025 | [15] 0.019

USP15 isoform 3 (UniProt Q9Y4E8)
inactive: [9] 0.037 | [12] 0 | [13] -0.049 | [15] -0.06

UQCRB (UniProt E5RHG9)
inactive: [12] -0.051

UNKL (UniProt E9PDK2)
inactive: [1] -0.088 | [3] 0.166 | [4] 0.061 | [6] -0.122 | [7] 0.155 | [8] 0.156 | ibrutinib -0.191 | [12] -0.086 | [13] 0.025

VAV2 (UniProt P52735)
inactive: [1] 0.065 | [3] 0.066 | [6] -0.043 | [9] 0.04 | [12] -0.366 | [15] 0.046

USP30 (UniProt Q70CQ3)
inactive: erlotinib 0.144 | [2] -0.026 | [5] 0.074 | IRAK-1-4 Inhibitor I -0.172 | ralimetinib -0.003 | [10] 0.024 | [11] 0.031 | [12] 0.051 | [13] 0.021 | [14] 0.045

USP46 (UniProt P62068)
inactive: [4] 0.084 | ibrutinib -0.129 | [9] 0.027 | [13] 0.009 | [15] 0.041

USP54 (UniProt Q70EL1)
inactive: [13] -0.007

USP40 isoform 3 (UniProt Q9NVE5)
inactive: erlotinib 0.045 | [2] -0.024 | [5] 0.203 | IRAK-1-4 Inhibitor I -0.051 | ralimetinib 0.016 | [10] 0.212 | [11] 0.163 | [16] 0.066 | [12] -0.029 | [13] 0.054 | [14] -0.076

USF3 (UniProt Q68DE3)
inactive: erlotinib 0.025 | [2] 0.02 | [4] -0.136 | [7] -0.043 | [8] -0.222 | ibrutinib 0.001 | [9] -0.048 | [11] 0.113 | [15] -0.143

Two neighbouring entries out of the list so far:
USP54 (UniProt Q70EL1)
inactive: [13] -0.007

USP40 isoform 3 (UniProt Q9NVE5)
inactive: erlotinib 0.045 | [2] -0.024 | [5] 0.203 | IRAK-1-4 Inhibitor I -0.051 | ralimetinib 0.016 | [10] 0.212 | [11] 0.163 | [16] 0.066 | [12] -0.029 | [13] 0.054 | [14] -0.076
